Experimental findings from paper PMC7819943, “Rice protein-binding microarrays: a tool to detect cis-acting elements near promoter regions in rice” are described below.

Some of the results follow.

This assay concerns the target T1, OsSMF1 (Oryza sativa, UniProt Q6ZLB0 1-436).
T1 sequence: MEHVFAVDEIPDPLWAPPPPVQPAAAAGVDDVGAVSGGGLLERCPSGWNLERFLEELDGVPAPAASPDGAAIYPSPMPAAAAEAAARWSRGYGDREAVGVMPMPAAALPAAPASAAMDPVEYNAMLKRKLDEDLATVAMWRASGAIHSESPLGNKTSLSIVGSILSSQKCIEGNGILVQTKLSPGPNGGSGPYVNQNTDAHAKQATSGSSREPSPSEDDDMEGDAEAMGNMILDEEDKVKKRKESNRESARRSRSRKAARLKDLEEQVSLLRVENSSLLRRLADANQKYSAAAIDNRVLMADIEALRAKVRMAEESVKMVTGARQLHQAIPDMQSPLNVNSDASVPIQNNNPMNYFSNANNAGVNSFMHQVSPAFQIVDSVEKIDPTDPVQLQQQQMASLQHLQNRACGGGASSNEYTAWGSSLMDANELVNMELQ
Kind of assay: protein-binding microarray (RPBM); PBS, 2% BSA, 51.3 ng/ul salmon testes DNA, 50 uM zinc acetate, 200 nM TF, 25 C, 1 h; high values mean tight binding. The following applies: protein: recombinant; tags: N-terminal polyhistidine and DsRed monomer fusion (pET32a); chain copies: 2; label: CyDye5-dUTP incorporated in the synthesized complementary strand; 3' TTTTT single-stranded linker to array surface; dsDNA, one strand shown. The gist of the method: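 Transcription factors were each fused at the N-terminus to a polyhistidine tag plus DsRed and expressed in E. coli BL21-CodonPlus before Ni–NTA purification. Binding to a double-stranded custom Agilent array was carried out with 200 nM protein at 25 °C for 1 h in PBS, 2% BSA, salmon testes DNA and 50 µM zinc acetate. The binding signal is per-feature fluorescence intensity, in arbitrary units, on an Axon 4000B scanner.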
In the case of “TCATATACAATATGATCATGGCACATGACTCACACATTTGCGGAGTCACCTAGTGCAG”, the binding signal was 4940 fluorescence intensity (a.u.). To “TTTATCAAAGCGTCATATATCAATGACCAGAGGTACAACACGGAGTCACCTAGTGCAG” belongs 3940 fluorescence intensity (a.u.). To “GATGCGAAACGTGGCCCGAGCCTCCGCCTACACCGACCCGCGGAGTCACCTAGTGCAG” belongs 3360 fluorescence intensity (a.u.). Next, “TCACTCAAGAAGGTGACTCATCTTTCATGTTTCTTGAAGTCGGAGTCACCTAGTGCAG”: 8550 fluorescence intensity (a.u.); “GATTCAAGGTTGAGAGGACCTAAGATGTCCAATGATGTGTCGGAGTCACCTAGTGCAG”: 3470 fluorescence intensity (a.u.); “CCCGCCGGCCGCCTACGCCACCCGCCCGTGTAAGCATCCACGGAGTCACCTAGTGCAG”: 3540 fluorescence intensity (a.u.). For the sequence “CATATGGTAACGGCTCACCTCATTTCGTGTATCATCTCAACGGAGTCACCTAGTGCAG”, the binding signal was 17800 fluorescence intensity (a.u.). To “TGCATGTAGTGGGCTGCACCTGGTGCGTCTGCATGCGTGGCGGAGTCACCTAGTGCAG” belongs 6600 fluorescence intensity (a.u.). With “TCGCACCGTCCAACCGCGTCATCTCGTGGACACGTGTCACCGGAGTCACCTAGTGCAG”, the binding signal was 20900 fluorescence intensity (a.u.). “CTTCCTCCTGCAAATATGCGTAGTCTTCTGTCATCGTCGACGGAGTCACCTAGTGCAG”: the binding signal is 4860 fluorescence intensity (a.u.). Regarding “TGTCCCCTTTCAACCTGTCATCGCCGCGTCCACCGCAGCGCGGAGTCACCTAGTGCAG”, the binding signal was 4470 fluorescence intensity (a.u.). Take “TTCTTGTCTTGGGGATTAGGTATGTCATACAAGACTCGACCGGAGTCACCTAGTGCAG”: the binding signal is 5110 fluorescence intensity (a.u.).

As for “TGGCATGTTACATTGGATATACGGACACAAATTTGATGTACGGAGTCACCTAGTGCAG”, the binding signal was 4180 fluorescence intensity (a.u.). Take “ACGGCCGCCACGCGAGAACCCTAACCACAATACCTACCGGCGGAGTCACCTAGTGCAG”: the binding signal was 3240 fluorescence intensity (a.u.). To “CCTATATGCACTAGTGTCCTGAGTATTCAATTTATTGTGTCGGAGTCACCTAGTGCAG” belongs 3160 fluorescence intensity (a.u.). To “CATCGTGTTGCTGACTGTACTTGACATCAACTCTTGTCCTCGGAGTCACCTAGTGCAG” belongs 14700 fluorescence intensity (a.u.); to “GTTTCGGCTTTCCTATCGCTTAGGTTGACACGTGGCGGATCGGAGTCACCTAGTGCAG”, 26500 fluorescence intensity (a.u.); to “TAGATCTTGCTTAGCTAGCTAGCGAATTAGTGTCGTCTTCCGGAGTCACCTAGTGCAG”, 3140 fluorescence intensity (a.u.). To “GGCCGCCATGGCGCAGCGGCACGAGCGGTGGATGGCCAAGCGGAGTCACCTAGTGCAG” belongs 34700 fluorescence intensity (a.u.); to “TTATAAACACACAACAAACATACGCGCTCACAACGCGTGCCGGAGTCACCTAGTGCAG”, 3150 fluorescence intensity (a.u.); to “TGGGTTTGTGGGTTATGTTTCGGTGCGTGCCGATAGTATACGGAGTCACCTAGTGCAG”, 3800 fluorescence intensity (a.u.). “TCTTCTATAACTAGGATTGACCTGTTGGTCATCCCGATGACGGAGTCACCTAGTGCAG”: the binding signal was 3290 fluorescence intensity (a.u.). Next, “TGCAAACTTGTGAGTCACACAGTAGCATTGTGCACAGCTTCGGAGTCACCTAGTGCAG”: 11300 fluorescence intensity (a.u.); “TACGACAAGCGTGTAGGACACGTAATTATCGGTAAACAGTCGGAGTCACCTAGTGCAG”: 6290 fluorescence intensity (a.u.). To “ACTAGCACACAGCAAGGCCCGTAGCACGCGTCACCACGGGCGGAGTCACCTAGTGCAG” belongs 4540 fluorescence intensity (a.u.); to “GGATTTGAATCCGCCGGGTGTAGTATTGATCTGATGATCACGGAGTCACCTAGTGCAG”, 13100 fluorescence intensity (a.u.); to “GATAAACTTTTGGATACTCATGACACGCTTTTCAAACTGCCGGAGTCACCTAGTGCAG”, 4060 fluorescence intensity (a.u.). Next, “TCTAATTAGTAGTATTATTATACATGTGGTCAGCAATTTTCGGAGTCACCTAGTGCAG”: 8560 fluorescence intensity (a.u.); “GGGATTGGGAATTTACACGAGGGAATTGATGATGAGATTACGGAGTCACCTAGTGCAG”: 3830 fluorescence intensity (a.u.); “CTCATGTCATGTGGTCACTCCCCAAGTCACCAGCATCACCCGGAGTCACCTAGTGCAG”: 3430 fluorescence intensity (a.u.). On to “TGCTATTTATGAGGTATTCATGTACAACTATAACATTCGACGGAGTCACCTAGTGCAG”, for which the binding signal was 3390 fluorescence intensity (a.u.). Regarding “GACGTGGTAAGTTAACTTGGTTAAAATGTGCTGACGTGGTCGGAGTCACCTAGTGCAG”, the binding signal was 24700 fluorescence intensity (a.u.).

Consider “ATGTTGCCTTTCTTTCGTCAACTATTTGCATTGCATGCATCGGAGTCACCTAGTGCAG”, for which the binding signal is 3280 fluorescence intensity (a.u.). To “AACCGATTACCGGTACTCCAAATGACCTCACTGCATTTCTCGGAGTCACCTAGTGCAG” belongs 3180 fluorescence intensity (a.u.); to “GTGTTTTATCCATCATACGTGATGTGTTACTCGCGCGTGTCGGAGTCACCTAGTGCAG”, 3880 fluorescence intensity (a.u.).

Consider “ATATATGCTAAGTATAAGTAGGGACATGACGCAAGTGTCACGGAGTCACCTAGTGCAG”, for which the binding signal was 3920 fluorescence intensity (a.u.). Next, “CCACCGCCGGCCACACACCTCCTGCCACGCCGCGCGCTCGCGGAGTCACCTAGTGCAG”: 5040 fluorescence intensity (a.u.). Next, “GGCCAGACAATTGTTAATGGGCTTGGGCTCGCTCAGGGAACGGAGTCACCTAGTGCAG”: 31400 fluorescence intensity (a.u.); “AACAGTACAGCAGCTCACATGTCACGATCAAACCGTGTAACGGAGTCACCTAGTGCAG”: 4240 fluorescence intensity (a.u.). To “TAGGACTTATTCTTTTGGTGTTGACACAAGGTACATGCTACGGAGTCACCTAGTGCAG” belongs 4100 fluorescence intensity (a.u.). For “AACGTTCCGGACCGTTAGATGACACAAGCAACGGTGGATCCGGAGTCACCTAGTGCAG”, the binding signal is 3870 fluorescence intensity (a.u.). Next, “CTTCACCGAGCTGCTCCACCTCCGTTTTGGCCCTCCCCTACGGAGTCACCTAGTGCAG”: 26800 fluorescence intensity (a.u.).
